# Primary screen of a compound library

From ChEMBL document CHEMBL3988442, “University of Dundee, Small-Polar-MMV Screening Library” (2021).

The filed quantity is “Percent Effect” (%). The record does not define 0% and 100%; most values in the screen are far below 50% and negative numbers occur (in some assays of this library far below -100). This is an unselected part of the compounds tested.

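Whole-parasite assay of Trypanosoma brucei over 72 hours; the read-out is not stated. Compounds at 30 µM. The record gives no direction; compounds that gave an IC50 in retests scored well above the rest, so higher reads as stronger inhibition. Values scatter widely below zero; nearly all retest evidence comes from the higher of the two concentrations used. Of about 64,000 compounds tested this way, about 940 (1.5%) reached 50% or more in at least one test.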

structure | Percent Effect
O=C(O)C(F)(F)F.[H][C@@]12OCCN(Cc3ccoc3)[C@@]1([H])CC[C@H]2OCC | -33.59
CS(=O)(=O)NCC1CCCN(C(=O)c2cccc(F)c2)C1 (stereo not given) | -25.08
O=C(c1ccc(OCC2CC2)nc1)N1CCCC(n2ccnc2)C1 (stereo not given) | -4.459
CN(C(=O)c1ccc(S(=O)(=O)NC(C)(C)C)cc1)C1(C#N)CCC1 | -15.35
Cc1cc(NC(C)C(=O)NCC(F)(F)F)nc(-c2ccncc2)n1 (stereo not given) | -22.65
CC(C)N(C)CCC(=O)N1CCCC(c2ccc(C(=O)O)cc2)C1 (stereo not given) | -29.06
CN(CC(=O)NC(C)(C)C)Cc1nc(-c2ccccc2)c[nH]1 | -23.11
Cc1n[nH]c(C)c1CCNC(=O)Nc1ccc(S(C)(=O)=O)cc1 | -35.68
Cc1nc(C)c(-c2nnc(SCC(=O)O)n2C(C)c2ccccc2)o1 (stereo not given) | -14.17
O=C(NCCOc1ccc(Cl)cn1)Nc1nccs1 | -11.96
CC(C)c1ncc2c(n1)CN(Cc1cccc(OCC(N)=O)c1)CC2 | -28.03
Cc1noc(C2(C)CCCN(C(=O)c3cccnc3)C2)n1 (stereo not given) | -6.188
CCOCCCn1c(NC(=O)c2scnc2C)nc2ccccc21 | 105.1
CN(C)[C@@H]1CCN(C(=O)NC2CCCC2)[C@H]1Cc1ccncc1.O=C(O)C(F)(F)F.O=C(O)C(F)(F)F | -8.442
CCC(=O)N1CCN(CCn2cccn2)c2ncccc2C1.O=C(O)C(F)(F)F | -68.7
N#Cc1cccc(S(=O)(=O)N2CCCCC2C(N)=O)c1 (stereo not given) | 14.81
Cc1cccc(NC(C)C(=O)Nc2nccs2)c1 (stereo not given) | -20.56
NCC1CN(C(=O)Cn2ncc(N3CCCCC3)cc2=O)CCO1 (stereo not given) | 7.872
Cc1nccnc1N1Cc2cnn(Cc3ccc(F)cc3)c2C1 | 12.66
COc1ccc(N(C(=O)c2ccccn2)C(C)C)cc1F | -29.74
Cc1[nH]c2c(C)ccc(C)c2c1CC(=O)NCC(O)c1cccnc1 (stereo not given) | -19
Fc1ccc(OCCCN2CC(n3cccn3)C2)cc1 | -27.94
CC(C)CNc1cc(-c2c[nH]nc2C2CCN(C(=O)C3CC3)C2)ccn1 (stereo not given) | 100.1
CS(=O)(=O)CCN(CCCO)C1CCc2ccccc21 (stereo not given) | -20.62
O=C(COc1cccc(F)c1)N1CCCCC1c1ccn2ccnc2n1 (stereo not given) | -11.38
O=C(O)C(F)(F)F.[H][C@@]12C[C@@H](c3nc(C)no3)O[C@]1([H])CN(Cc1cc(C)on1)C2 | -8.96
CN(C)c1ccc2c(c1)CN(C(=O)c1ccco1)C2c1cnco1 (stereo not given) | -74.73
CN(C)CCOCC1CN(CCN(C)C)Cc2ccnn2C1 (stereo not given) | 28.29
Cc1nc(O)c2nnn(C[C@H]3CCCN3C(=O)c3ccccc3F)c2n1 | -3.105
[H][C@]12CC[C@]([H])(CN(Cc3cscn3)C1)N(Cc1cc(C(C)(C)C)[nH]n1)C2 | 14.03
Cc1ccc(CN(CCN(C)C)C(=O)Nc2cnn(C)c2)s1 | -23.91
Cn1nc2c(cc1=O)CN(c1ncnc3ccsc13)CC2 | 8.239
Cc1ccc(NC(C(N)=O)c2ccc(F)cc2)cc1 (stereo not given) | -8.491
Cl.O=C(NC[C@@]1(COc2cnccn2)C[C@@H](O)[C@@H](O)C1)C1CCCC1 | -46.5
Cc1noc(OCc2csc(C)n2)n1 | -37.33
Cc1nc(-c2cccc(N3CCC(NC4CCOCC4)CC3)c2)cs1 | -0.1418
CCO[C@H]1CN(C)C[C@@H]1NC(=O)c1cc(C)nc2c(C)cccc12 | 32.88
CC(C)c1cc(NC(=O)Cn2cnc3ccccc3c2=O)[nH]n1 | 1.416
CCN(C(=O)CN1CCCC1c1cccs1)c1ccccc1C (stereo not given) | -10.49
Cc1nc(CCN)cc(N(C)Cc2nc3ccc(F)cc3[nH]2)n1 | -14.96
Cc1ccn(CCNc2ncnc3c2CCN(c2cnccn2)CC3)n1 | 5.743
CCN(CC(=O)Nc1cc(Cl)ccc1C)C(=O)c1ccncc1 | -9.592
O=C(Nc1nncs1)NC1CCCc2c1cnn2CCO (stereo not given) | -29.35
Cc1ccccc1OCCSc1nnc(CC2CCS(=O)(=O)C2)n1C (stereo not given) | -5.174
O=C1NCCCCC1NC(=O)C1(c2ccc3c(c2)OCCO3)CCCC1 (stereo not given) | -36.97
COC(=O)Cn1c(C)cc(=O)n2nc(-c3cccs3)nc12 | -22.07
CCc1nc(C2CCCN2CCS(=O)(=O)c2ccccc2)no1 (stereo not given) | -6.69
CCC(CNC(=O)c1cccc(S(=O)(=O)NC)c1)N1CCCC1 (stereo not given) | -32.18

Some entries from above, unchanged:

For O=C(c1ccc(OCC2CC2)nc1)N1CCCC(n2ccnc2)C1 (stereo not given) the result was -4.459%.
For CS(=O)(=O)NCC1CCCN(C(=O)c2cccc(F)c2)C1 (stereo not given) the result was -25.08%.
For Cc1nc(CCN)cc(N(C)Cc2nc3ccc(F)cc3[nH]2)n1 the result was -14.96%.
For Cc1cccc(NC(C)C(=O)Nc2nccs2)c1 (stereo not given) the result was -20.56%.
For O=C(COc1cccc(F)c1)N1CCCCC1c1ccn2ccnc2n1 (stereo not given) the result was -11.38%.
For Cc1ccc(NC(C(N)=O)c2ccc(F)cc2)cc1 (stereo not given) the result was -8.491%.